Experimental data from patent US20220064322A1.
Results are given in words; binding and its absence hold for the method and conditions named. Binding calls can cover weak binding; strength is not graded here.

Molecular target: cynomolgus CD73 on the cell surface (293T/17-cynoCD73 cells) (cynomolgus (Macaca fascicularis))
Assay: flow cytometry on 293T/17 cells expressing cynoCD73, APC-labelled goat anti-human antibody, MFI

| binding | Binder |
| --- | --- |
| binds | JB94H2L1 (antibody, human IgG1, kappa, V domains shown) VH: QVQLVQSGAEVKKPGASVKVSCKASGYTFTSYWMHWVRQRPGQGLEWMGYINPSSGYTKSNQKFKDRVTLTADTSTSTAYMELSSLRSEDTAVYYCGRWLLSAWFAYWGQGTLVTVSS VL: DIQMTQSPSSLSASVGDRVTITCKASQDINTYLSWFQQKPGKAPKSLIYRSNILVDGVPSRFSGSGSGQDFTLTISSLQPEDFAIYYCLQYDDFPYTFGQGTKLEIKR |
| binds | JB94H3L3 (antibody, human IgG1, kappa, V domains shown) VH: QVQLQQSGAEVKKPGASVKLSCKASGYTFTSYWMHWVRQRPGQGLEWIGYINPSSGYTKSNQKFKDRATLTADTSTSTAYMELSSLRSEDTAVYYCGRWLLSAWFAYWGQGTLVTVSS VL: DIQMTQSPSSLSASVGDRVTITCKASQDINTYLSWFQQKPGKSPKSLIYRSNILVDGVPSRFSGSGSGQDYTLTISSLQPEDFAIYYCLQYDDFPYTFGQGTKLEIKR |
| binds | JB24H3L3 (antibody, human IgG1, kappa, V domains shown) VH: QVQLVQSGAEVKKPGASVKMSCKASGYTFTDYNMHWVKQSHGKSLEWIGYIKPHNAGTTYNPKFEGRATLTVDTSASTAYMELRSLRSEDTAVYYCVRSDFLYWYFDVWGQGTTVTVSS VL: DIVMTQSPSSLSASVGDRVTITCTASSSVSSSYLHWYQQKPGSSPKLWIYSTSNLASGVPGRFSGSGSGTDYTLTISSLQPEDFATYYCHQYHRSPLTFGAGTKLEIKR |

Continued, binder first:

| Binder | binding |
| --- | --- |
| JB24Chi (antibody, human IgG1, kappa, V domains shown) VH: QVQLQQSGLELVKPGASVKMSCKASGYTFTDYNMHWVKQSHGKSLEWIGYIKPHNGGTTYNPKFEGKATLTVNKSSSTAYMELRSLTSEDSAVYYCVRCDFLYWYFDVWGTGTTVTVSS VL: DIVMTQSPAIMSASLGERVTMTCTASSSVSSSYLHWYQQKPGSSPKLWIYSTSNLASGVPGRFSGSGSGTSYSLTISSMEAEDAATYYCHQYHRSPLTFGAGTKLEMKR | binds |
| JB24H2L1 (antibody, human IgG1, kappa, V domains shown) VH: QVQLVQSGAEVKKPGASVKMSCKASGYTFTDYNMHWVRQSPGKSLEWIGYIKPHNAGTTYNPKFEGRATLTVDTSASTAYMELSSLRSEDTAVYYCVRSDFLYWYFDVWGQGTTVTVSS VL: DIQMTQSPSSLSASVGDRVTITCTASSSVSSSYLHWYQQKPGKAPKLLIYSTSNLASGVPSRFSGSGSGTDFTLTISSLQPEDFATYYCHQYHRSPLTFGAGTKLEIKR | binds |
| JB24H3L2 (antibody, human IgG1, kappa, V domains shown) VH: QVQLVQSGAEVKKPGASVKMSCKASGYTFTDYNMHWVKQSHGKSLEWIGYIKPHNAGTTYNPKFEGRATLTVDTSASTAYMELRSLRSEDTAVYYCVRSDFLYWYFDVWGQGTTVTVSS VL: DIQMTQSPSSLSASVGDRVTITCTASSSVSSSYLHWYQQKPGSAPKLWIYSTSNLASGVPSRFSGSGSGTDYTLTISSLQPEDFATYYCHQYHRSPLTFGAGTKLEIKR | binds |
